In PMC8069214, “Synthesis, Biological Evaluation, and Molecular Modeling of Aza-Crown Ethers” (Molecules, 2021):
Results are given in words; binding and its absence hold for the method and conditions named. Some results given as binding are weak or reduced against the parent protein; the word gives no strength.

Amino acid sequences for entries named in this document (tags omitted).
UniProt P21462: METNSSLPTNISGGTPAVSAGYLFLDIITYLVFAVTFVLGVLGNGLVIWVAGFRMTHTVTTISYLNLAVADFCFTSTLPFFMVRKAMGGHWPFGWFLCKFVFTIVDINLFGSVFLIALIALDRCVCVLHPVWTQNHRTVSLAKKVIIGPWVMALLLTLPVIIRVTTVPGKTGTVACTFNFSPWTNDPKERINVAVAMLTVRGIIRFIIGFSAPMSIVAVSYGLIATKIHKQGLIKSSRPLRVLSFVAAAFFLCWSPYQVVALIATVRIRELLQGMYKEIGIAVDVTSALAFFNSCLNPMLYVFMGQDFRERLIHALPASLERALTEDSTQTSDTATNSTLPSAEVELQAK

Target: N-formyl peptide receptor 1 (human) (UniProt P21462)
Assay: flow cytometry on cells; competition binding: FPR1-HL60 cells preincubated with test compound 30 min at 4 °C, then 0.5 nM WKYMVm-FITC for 30 min at 4 °C, read without washing; controls 1 µM unlabeled fMLF or buffer; only the binder purified

binding: binds
Binder: WKYMVM (D-Met at position 6 (printed as m); FITC conjugated to the lysine residue) [WKYMVm-FITC (Trp-Lys-Tyr-Met-Val-D-Met with fluorescein isothiocyanate on the lysine residue)]
